No constants are given. Whether binding was seen depends on the method and setting. Some binding calls cover weakened binding; strength is not graded here.
Molecular target: Plasmodium falciparum hexokinase (Plasmodium falciparum) (UniProt Q02155)
Test: crystal structure; sitting drop, 20% PEG 3350, 200 mM sodium citrate, 0.1 M sodium citrate buffer pH 3.4-4.0; 5-8 mg/mL PfHK with 10 mM glucose, 10 mM ATP, 5 mM DTT; space group P3(1)21, two monomers in the asymmetric unit, tetramer by a crystallographic 2-fold axis; both purified

- binding: binds
B1: Plasmodium falciparum hexokinase (enzyme)
chain: MSEYDIAKNDVTYTKLDTIECDIPINEELSWRINKFVNQLRISYSTLEEFVDNFVYELKKGLEAHRKHPNLWIPHECSFKMLDSCIANIPTGQEKGTYYAIDFGGTNFRAVRASLDGKGKIKRDQETYSLKFTGSYSHEKGLLDKHATASQLFDHFAERIKYIMGEFNDLDNKEVKSVGFTFSFPCTSPSINCSILIDWTKGFETGRATNDPVEGRDVCKLMNDAFVRAAIPAKVCCVLNDAVGTLMSCAYQKGRGTPPCYIGIILGTGSNGCYYEPEWKKYKYAGKIINIEFGNFDKDLPTSPIDLVMDWYSANRSRQLFEKMISGAYLGEIVRRFMVNVLQSACSKKMWISDSFNSESGSVVLNDTSKNFEDSRKVAKAAWDMDFTDEQIYVLRKICEAVYNRSAALARGTIAAIAKRIKIIEHSKFTCGVDGSLFVKNAWYCKRLQEHLKVILADKAENLIIIPADDGSGKGAAITAAVIALNADIPQLP
notes: Hexokinase of Plasmodium falciparum, PlasmoDB PF3D7_0624000, gene ordered codon-optimised for E. coli and cloned into pET30a-c(+); the model holds I25-N486 (subunit A) and I23-I489 (subunit B); The PlasmoDB id is that of strain 3D7; also called PfHK; P. falciparum hexokinase
